Laboratory results reported in article PMC6739341.
These are yes or no findings as the source states them, for the method shown. Binding seen in cells or lysates may run through a third protein. A yes stands for co-enrichment or nearness to the bait. Other partners may have been found. Where a sequence is shown, tags or fusion partners need not be part of it.

Protein sequences, listed by entry. Tags and fused reporters are not part of them.
UniProt Q13263: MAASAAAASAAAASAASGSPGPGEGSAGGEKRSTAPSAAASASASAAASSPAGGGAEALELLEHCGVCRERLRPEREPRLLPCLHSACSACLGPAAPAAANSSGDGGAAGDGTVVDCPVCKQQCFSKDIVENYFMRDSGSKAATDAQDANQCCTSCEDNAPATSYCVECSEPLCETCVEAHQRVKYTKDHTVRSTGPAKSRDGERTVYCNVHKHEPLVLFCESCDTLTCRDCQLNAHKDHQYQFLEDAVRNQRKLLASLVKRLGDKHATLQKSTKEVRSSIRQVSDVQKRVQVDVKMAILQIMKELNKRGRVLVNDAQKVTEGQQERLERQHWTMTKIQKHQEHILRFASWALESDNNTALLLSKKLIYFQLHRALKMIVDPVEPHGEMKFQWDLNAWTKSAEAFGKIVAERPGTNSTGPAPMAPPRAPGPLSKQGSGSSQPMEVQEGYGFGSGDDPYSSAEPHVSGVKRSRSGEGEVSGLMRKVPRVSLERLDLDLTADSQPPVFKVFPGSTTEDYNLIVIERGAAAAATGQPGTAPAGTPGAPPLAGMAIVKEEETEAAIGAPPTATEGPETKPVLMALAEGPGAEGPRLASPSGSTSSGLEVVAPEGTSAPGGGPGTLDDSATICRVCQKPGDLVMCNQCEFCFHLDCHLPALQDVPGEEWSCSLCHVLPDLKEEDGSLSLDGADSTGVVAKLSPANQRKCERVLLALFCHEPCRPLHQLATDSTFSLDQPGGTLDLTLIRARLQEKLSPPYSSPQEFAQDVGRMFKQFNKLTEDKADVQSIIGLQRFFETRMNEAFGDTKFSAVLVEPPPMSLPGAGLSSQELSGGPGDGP
UniProt P20700: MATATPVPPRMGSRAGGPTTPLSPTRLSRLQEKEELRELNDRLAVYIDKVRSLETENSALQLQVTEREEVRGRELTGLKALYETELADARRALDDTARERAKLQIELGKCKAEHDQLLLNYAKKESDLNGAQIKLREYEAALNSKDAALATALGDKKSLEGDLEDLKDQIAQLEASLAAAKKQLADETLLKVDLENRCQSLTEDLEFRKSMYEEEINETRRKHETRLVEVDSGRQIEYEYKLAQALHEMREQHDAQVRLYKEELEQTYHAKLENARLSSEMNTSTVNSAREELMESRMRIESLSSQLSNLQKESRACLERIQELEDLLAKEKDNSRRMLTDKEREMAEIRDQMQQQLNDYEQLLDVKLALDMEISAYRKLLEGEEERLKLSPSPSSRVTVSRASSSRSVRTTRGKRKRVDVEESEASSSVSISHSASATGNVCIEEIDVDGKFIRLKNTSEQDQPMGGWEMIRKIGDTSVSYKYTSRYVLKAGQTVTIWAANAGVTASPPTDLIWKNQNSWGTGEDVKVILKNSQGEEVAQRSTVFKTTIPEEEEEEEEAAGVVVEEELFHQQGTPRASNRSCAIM

T1: FLAG-HA-tagged full length C11orf46 (human) (UniProt Q8N8R7)
T1 sequence: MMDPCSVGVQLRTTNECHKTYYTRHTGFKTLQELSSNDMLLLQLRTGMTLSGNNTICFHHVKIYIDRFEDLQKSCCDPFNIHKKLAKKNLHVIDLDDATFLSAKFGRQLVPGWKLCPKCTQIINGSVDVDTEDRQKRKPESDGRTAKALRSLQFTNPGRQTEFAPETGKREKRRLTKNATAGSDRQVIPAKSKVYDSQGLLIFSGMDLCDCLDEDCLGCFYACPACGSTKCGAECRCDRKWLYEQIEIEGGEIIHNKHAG

B1: MBD-containing-associated factor (MCAF1), endogenous in HEK293 (protein, UniProt Q6VMQ6 1-1270)
chain: MDSLEEPQKKVFKARKTMRVSDRQQLEAVYKVKEELLKTDVKLLNGNHENGDLDPTSPLENMDYIKDKEEVNGIEEICFDPEGSKAEWKETPCILSVNVKNKQDDDLNCEPLSPHNITPEPVSKLPAEPVSGDPAPGDLDAGDPASGVLASGDSTSGDPTSSEPSSSDAASGDATSGDAPSGDVSPGDATSGDATADDLSSGDPTSSDPIPGEPVPVEPISGDCAADDIASSEITSVDLASGAPASTDPASDDLASGDLSSSELASDDLATGELASDELTSESTFDRTFEPKSVPVCEPVPEIDNIEPSSNKDDDFLEKNGADEKLEQIQSKDSLDEKNKADNNIDANEETLETDDTTICSDRPPENEKKVEEDIITELALGEDAISSSMEIDQGEKNEDETSADLVETINENVIEDNKSENILENTDSMETDEIIPILEKLAPSEDELTCFSKTSLLPIDETNPDLEEKMESSFGSPSKQESSESLPKEAFLVLSDEEDISGEKDESEVISQNETCSPAEVESNEKDNKPEEEEQVIHEDDERPSEKNEFSRRKRSKSEDMDNVQSKRRRYMEEEYEAEFQVKITAKGDINQKLQKVIQWLLEEKLCALQCAVFDKTLAELKTRVEKIECNKRHKTVLTELQAKIARLTKRFEAAKEDLKKRHEHPPNPPVSPGKTVNDVNSNNNMSYRNAGTVRQMLESKRNVSESAPPSFQTPVNTVSSTNLVTPPAVVSSQPKLQTPVTSGSLTATSVLPAPNTATVVATTQVPSGNPQPTISLQPLPVILHVPVAVSSQPQLLQSHPGTLVTNQPSGNVEFISVQSPPTVSGLTKNPVSLPSLPNPTKPNNVPSVPSPSIQRNPTASAAPLGTTLAVQAVPTAHSIVQATRTSLPTVGPSGLYSPSTNRGPIQMKIPISAFSTSSAAEQNSNTTPRIENQTNKTIDASVSKKAADSTSQCGKATGSDSSGVIDLTMDDEESGASQDPKKLNHTPVSTMSSSQPVSRPLQPIQPAPPLQPSGVPTSGPSQTTIHLLPTAPTTVNVTHRPVTQVTTRLPVPRAPANHQVVYTTLPAPPAQAPLRGTVMQAPAVRQVNPQNSVTVRVPQTTTYVVNNGLTLGSTGPQLTVHHRPPQVHTEPPRPVHPAPLPEAPQPQRLPPEAASTSLPQKPHLKLARVQSQNGIVLSWSVLEVDRSCATVDSYHLYAYHEEPSATVPSQWKKIGEVKALPLPMACTLTQFVSGSKYYFAVRAKDIYGRFGPFCDPQSTDVISSTQSS
B2: Lamina-associated protein 2, isoform alpha (LAP2A), endogenous in HEK293 (protein, UniProt P42166 1-694)
chain: MPEFLEDPSVLTKDKLKSELVANNVTLPAGEQRKDVYVQLYLQHLTARNRPPLPAGTNSKGPPDFSSDEEREPTPVLGSGAAAAGRSRAAVGRKATKKTDKPRQEDKDDLDVTELTNEDLLDQLVKYGVNPGPIVGTTRKLYEKKLLKLREQGTESRSSTPLPTISSSAENTRQNGSNDSDRYSDNEEGKKKEHKKVKSTRDIVPFSELGTTPSGGGFFQGISFPEISTRPPLGSTELQAAKKVHTSKGDLPREPLVATNLPGRGQLQKLASERNLFISCKSSHDRCLEKSSSSSSQPEHSAMLVSTAASPSLIKETTTGYYKDIVENICGREKSGIQPLCPERSHISDQSPLSSKRKALEESESSQLISPPLAQAIRDYVNSLLVQGGVGSLPGTSNSMPPLDVENIQKRIDQSKFQETEFLSPPRKVPRLSEKSVEERDSGSFVAFQNIPGSELMSSFAKTVVSHSLTTLGLEVAKQSQHDKIDASELSFPFHESILKVIEEEWQQVDRQLPSLACKYPVSSREATQILSVPKVDDEILGFISEATPLGGIQAASTESCNQQLDLALCRAYEAAASALQIATHTAFVAKAMQADISQAAQILSSDPSRTHQALGILSKTYDAASYICEAAFDEVKMAAHTMGNATVGRRYLWLKDCKINLASKNKLASTPFKGGTLFGGEVCKVIKKRGNKH

Molecular target: T1, FLAG-HA-tagged full length C11orf46 (human)
Assay: affinity purification with mass spectrometry; FLAG-tagged C11orf46 or C11orf46∆ induced with 2 μg/ml doxycycline for 48 h in HEK293; lysate with Benzonase passed over anti-FLAG agarose column at 4 °C, washed with CS100-0.02 and CS500-0.02 buffers, eluted with 3X-FLAG peptide; silver stain and mass spectrometry

| binding | Molecule |
| --- | --- |
| binds | KRAB associated protein (KAP1), endogenous in HEK293 (from UniProt Q13263 1-835) |
| binds | Lamin B1 (LMNB1), endogenous in HEK293 (from UniProt P20700 1-586) |
| binds | B1 |
| binds | B2 |
